Here are results for two molecules from publication PMC4371837.

Sequences of proteins named here, by UniProt entry; tags and fusion partners are left off.
UniProt Q8VIG1: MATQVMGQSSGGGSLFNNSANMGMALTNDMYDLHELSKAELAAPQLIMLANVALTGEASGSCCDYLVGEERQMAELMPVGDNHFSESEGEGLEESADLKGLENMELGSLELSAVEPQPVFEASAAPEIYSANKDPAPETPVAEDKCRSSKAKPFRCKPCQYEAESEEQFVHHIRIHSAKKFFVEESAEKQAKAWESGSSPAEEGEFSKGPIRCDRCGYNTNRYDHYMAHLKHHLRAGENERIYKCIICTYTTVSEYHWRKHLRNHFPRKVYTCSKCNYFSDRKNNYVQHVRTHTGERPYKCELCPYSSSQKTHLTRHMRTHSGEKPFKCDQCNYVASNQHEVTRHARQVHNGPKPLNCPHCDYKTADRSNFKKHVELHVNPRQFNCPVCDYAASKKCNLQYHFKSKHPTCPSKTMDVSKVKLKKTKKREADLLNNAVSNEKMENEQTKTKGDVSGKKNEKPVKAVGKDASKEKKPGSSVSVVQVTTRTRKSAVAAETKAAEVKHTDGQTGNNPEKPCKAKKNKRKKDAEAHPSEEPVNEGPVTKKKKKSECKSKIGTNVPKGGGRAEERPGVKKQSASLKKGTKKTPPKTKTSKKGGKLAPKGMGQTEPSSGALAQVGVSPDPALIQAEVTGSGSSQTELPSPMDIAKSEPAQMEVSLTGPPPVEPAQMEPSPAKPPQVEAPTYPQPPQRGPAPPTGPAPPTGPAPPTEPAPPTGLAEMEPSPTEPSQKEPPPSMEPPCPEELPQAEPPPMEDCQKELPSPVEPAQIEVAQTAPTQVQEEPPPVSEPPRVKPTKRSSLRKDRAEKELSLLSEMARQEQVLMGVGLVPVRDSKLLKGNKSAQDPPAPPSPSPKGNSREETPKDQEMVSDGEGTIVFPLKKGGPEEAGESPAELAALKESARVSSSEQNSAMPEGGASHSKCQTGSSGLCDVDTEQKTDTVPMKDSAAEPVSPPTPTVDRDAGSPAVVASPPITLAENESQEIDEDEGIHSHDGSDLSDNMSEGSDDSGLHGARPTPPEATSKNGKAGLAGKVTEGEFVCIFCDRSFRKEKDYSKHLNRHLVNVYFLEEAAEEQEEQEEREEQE

In this test the target is Flag-BioT-mREST (mouse REST tagged with a biotin acceptor sequence) (mouse) (UniProt Q8VIG1). Description: affinity purification with mass spectrometry; biotin-tagged REST captured on streptavidin M-280 magnetic beads from cleared whole-cell lysate of mouse ESCs (clone #60), 4°C, 3 hr, 50 mM Tris-Cl pH 7.5, 150 mM NaCl, 0.5% Triton X-100, 0.5 mM EDTA, 10% glycerol; MudPIT on three independent purifications; parental BirA-J1 cells as control.

These are yes or no findings as the source states them, for the method shown. In cells and extracts the contact can be indirect. Here binding means that the protein was enriched with, or labelled near, the bait; the list need not be complete.

B1: Pura (protein, UniProt P42669 1-321)
chain: MADRDSGSEQGGAALGSGGSLGHPGSGSGSGGGGGGGGGGGGSGGGGGAPGGLQHETQELASKRVDIQNKRFYLDVKQNAKGRFLKIAEVGAGGNKSRLTLSMSVAVEFRDYLGDFIEHYAQLGPSQPPDLAQAQDEPRRALKSEFLVRENRKYYMDLKENQRGRFLRIRQTVNRGPGLGSTQGQTIALPAQGLIEFRDALAKLIDDYGVEEEPAELPEGTSLTVDNKRFFFDVGSNKYGVFMRVSEVKPTYRNSITVPYKVWAKFGHTFCKYSEEMKKIQEKQREKRAACEQLHQQQQQQQEETTAATLLLQGEEEGEED
Take B1: the binding result was “binds”.

B2: Wwox (protein, UniProt Q91WL8 1-414)
chain: MAALRYAGLDDTDSEDELPPGWEERTTKDGWVYYANHTEEKTQWEHPKTGKRKRVAGDLPYGWEQETDENGQVFFVDHINKRTTYLDPRLAFTVDDNPTKPTTRQRYDGSTTAMEILQGRDFTGKVVLVTGANSGIGFETAKSFALHGAHVILACRNLSRASEAVSRILEEWHKAKVEAMTLDLAVLRSVQHFAEAFKAKNVSLHVLVCNAGTFALPWGLTKDGLETTFQVNHLGHFYLVQLLQDVLCRSSPARVIVVSSESHRFTDINDSSGKLDLSRLSPPRSDYWAMLAYNRSKLCNILFSNELHRRLSPRGVTSNAVHPGNMMYSAIHRNSWVYKLLFTLARPFTKSMQQGAATTVYCAVAPELEGLGGMYFNNCCRCLPSEEAQSEETARALWELSERLIQDRLGSPSS
Take B2: the binding entry is given as “binds”.
